# Measurements reported in PubChem BioAssay AID720505 (Drosophila RNAi Screening Center, 2013)
# Aim: 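Genes needed for store-operated calcium entry in fly cells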 (primary screen)
# Cell system: Drosophila S2R+ cells
# Reagents: long dsRNA against Drosophila genes
# Challenge: thapsigargin (2 µM) in calcium-free buffer to empty internal stores, then 2 mM calcium added back
# Measured: 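Fluo-4 signal in 384-well plates read on a FLIPR after thapsigargin (2 µM, calcium-free) store depletion and 2 mM calcium add-back; unnormalised mean endpoint per well; screen run twice, selected wells retested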
# Direction: calcium signal and retest calcium signal: higher = more calcium entry after store depletion
# Rule for the call: 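Knock-downs counted as hits when calcium entry dropped relative to STIM1 positive and Rho1 negative controls present on each plate; roughly 1500 genes called, with reductions of differing size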
# Calls: active = called as lowering calcium entry; inactive = not called
# The deposit covers about 20,000 reagents; this is a random part of those with a known target gene and a result. Over the whole deposit, about 2,100 (10%) were called active. 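Raw plate signals without normalisation; calls rest on control-based scores that were not deposited; replicate 2 separates called from uncalled poorly.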 Names joined by + are all predicted targets of the reagent. Not given: the amount of reagent, the time to read-out.
The opening 3 records, to show the layout:
target gene,dsRNA,"calcium signal, replicate 1","calcium signal, replicate 2","retest calcium signal, replicate 1","retest calcium signal, replicate 2",outcome
CG16837,DRSC04283,171,171,,,inactive
CG31051,DRSC15034,87.4,116,,,inactive
CG2698,DRSC15447,109,187,,,inactive

The list itself, from the first entry:
target gene,dsRNA,"calcium signal, replicate 1","calcium signal, replicate 2","retest calcium signal, replicate 1","retest calcium signal, replicate 2",outcome
CG16837,DRSC04283,171,171,,,inactive
CG31051,DRSC15034,87.4,116,,,inactive
CG2698,DRSC15447,109,187,,,inactive
Tango11 (Transport and Golgi organization 11),DRSC03890,2406,97.1,,,active
Tango11 (Transport and Golgi organization 11),DRSC03892,79,4981,,,inactive
alrm (astrocytic leucine-rich repeat molecule),DRSC14436,300,162,,,inactive
CG7565,DRSC10881,81.1,104,,,inactive
CG11893,DRSC14429,295,105,,,inactive
mip40 (Myb-interacting protein 40),DRSC06541,124,104,,,inactive
Kpc2 (Kip1 ubiquitination-promoting complex subunit 2),DRSC07635,183,150,,,inactive
CG14130,DRSC10134,57.7,55.8,,,active
aph-1 (anterior pharynx defective 1),DRSC00547,113,167,,,inactive
CG8562,DRSC10995,53,68.3,,,inactive
CG16787,DRSC04282,108,194,,,inactive
CG14545,DRSC14889,260,192,,,inactive
CG15343,DRSC18028,172,138,,,inactive
lin (lines),DRSC07644,84.2,112,,,inactive
Axn (Axin),DRSC14120,221,259,5597,140,inactive
Tsp74F (Tetraspanin 74F),DRSC10508,118,125,,,inactive
bib (big brain),DRSC03496,114,88.4,,,inactive
RnrS (Ribonucleoside diphosphate reductase small subunit),DRSC07533,148,126,,,inactive
CG31086 + CG31323,DRSC14902,196,117,,,inactive
lncRNA:noe (long non-coding RNA:noe),DRSC22747,127,193,,,inactive
Evi5 (Ecotropic viral integration site 5),DRSC19421,105,86.4,,,inactive
Atx2 (Ataxin-2),DRSC15727,75.5,87.2,,,active
Atx2 (Ataxin-2),DRSC23010,132,109,,,inactive
CG3719,DRSC18493,139,134,,,inactive
CG9119,DRSC08620,140,105,,,inactive
wash (washout),DRSC06302,91.2,121,,,inactive
CG8170,DRSC07087,172,140,,,inactive
CG1631,DRSC20535,141,99.7,,,inactive
CG15760,DRSC19725,61.7,109,,,active
CG31626 + CG8677,DRSC21844,57.7,101,,,active
Cyp313b1 (Cytochrome P450 313b1),DRSC16629,98.9,212,,,inactive
lncRNA:CR32385 (long non-coding RNA:CR32385),DRSC22966,95.3,164,,,inactive
CG33298,DRSC02210,180,163,,,inactive
CG33298,DRSC02672,102,117,,,inactive
Pxt (Peroxinectin-like),DRSC17040,63.4,103,,,active
Rpn8 (Regulatory particle non-ATPase 8),DRSC04624,92.6,135,,,active
Rac2,DRSC11262,79.7,51.5,,,inactive
CG8841,DRSC07286,182,157,,,inactive
Fak (Focal adhesion kinase),DRSC07426,206,156,,,inactive
tef (teflon),DRSC07301,122,78.3,,,inactive
tef (teflon),DRSC22041,93.2,221,,,inactive
Ets97D (Ets at 97D),DRSC16665,197,207,,,inactive
Arp1 (Actin-related protein 1),DRSC14118,165,115,,,inactive
CG15115,DRSC06537,109,129,,,inactive
CG32379,DRSC10318,97.9,66.9,,,inactive
Pdha (Pyruvate dehydrogenase E1 alpha subunit),DRSC18413,235,121,,,inactive
Fhos (Formin homology 2 domain containing),DRSC10545,98.5,110,,,inactive
Fhos (Formin homology 2 domain containing),DRSC10546,98.7,76.3,,,inactive
Fhos (Formin homology 2 domain containing),DRSC10547,98.9,88.4,,,inactive
CG43795,DRSC04192,112,188,,,inactive
CG43795,DRSC04193,98.4,143,,,inactive
CG43795,DRSC04194,167,163,,,inactive
CG43795,DRSC04309,166,203,,,inactive
CG43795,DRSC04310,142,159,,,inactive
CG43795,DRSC04497,83.1,106,,,inactive
CG43795,DRSC22826,115,87.5,,,inactive
FBXO11 (F-box protein 11),DRSC16497,124,152,,,inactive
CG14839,DRSC14963,112,117,98.1,100,inactive
Krn (Keren),DRSC11202,76.6,164,,,inactive
osp (outspread),DRSC01409,175,88.9,,,inactive
osp (outspread),DRSC03585,68.8,118,,,active
RnrL (Ribonucleoside diphosphate reductase large subunit),DRSC03413,88,71.3,,,inactive
CG5810,DRSC15880,148,165,,,inactive
CG5810,DRSC21921,103,206,,,inactive
Gr59a (Gustatory receptor 59a),DRSC21550,296,117,,,inactive
Ugt36A1 + CG15418,DRSC00432,156,92.7,,,inactive
Nup107 (Nucleoporin 107kD),DRSC01999,72.9,96,,,active
CG14826,DRSC10197,76.2,61,,,inactive
Pex13 (Peroxin 13),DRSC06877,125,136,,,inactive
CG10628,DRSC02080,68.6,217,,,inactive
CG42807,DRSC06966,128,201,,,inactive
mRpL50 (mitochondrial ribosomal protein L50),DRSC11015,78.8,115,75.5,86.1,inactive
AstC-R1 (Allatostatin C receptor 1),DRSC10799,96.3,199,,,inactive
Naprt (Nicotinate phosphoribosyltransferase),DRSC00630,136,276,,,inactive
CG30378,DRSC05071,126,144,,,inactive
CG15525,DRSC15062,175,150,,,inactive
norpA (no receptor potential A),DRSC18806,121,159,,,inactive
PIG-S (Phosphatidylinositol glycan anchor biosynthesis class S),DRSC14643,250,275,,,inactive
PIG-S (Phosphatidylinositol glycan anchor biosynthesis class S),DRSC15388,146,108,,,inactive
PIG-S (Phosphatidylinositol glycan anchor biosynthesis class S),DRSC15952,179,281,,,inactive
